# Primary screen of a compound library

From ChEMBL document CHEMBL3988442, “University of Dundee, Small-Polar-MMV Screening Library” (2021).

Each number is a percent effect as filed.
The record does not define 0% and 100%; most values in the screen are far below 50% and negative numbers occur (in some assays of this library far below -100).
This is an unselected part of the compounds tested.
Two or more numbers in one place are separate tests of the same structure; such repeats can differ widely.

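Phenotypic screen: M. tuberculosis growth, glucose 7H9 medium, 3 days; the read-out is not stated. Concentration: 50 µM. Higher reads as more growth inhibition (inferred: compounds with an IC50 in retests scored well above the rest). Size under these conditions: about 69,000 compounds, about 760 of them at 50% or above in at least one test.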

| # | SMILES | percent effect |
|---|---|---|
| 1 | `CN(Cc1ccccc1)c1ncccc1CNC1CN2CCC1CC2` (stereo unspecified) | 32.34 |
| 2 | `CS(=O)(=O)NCc1cn2c(n1)CN(Cc1cccnc1)CC2.O=C(O)C(F)(F)F.O=C(O)C(F)(F)F` | -1.745 |
| 3 | `Cc1cc(N2CCC(N(C)C(=O)c3ccccc3F)CC2)nc(C)n1` | 18.32 |
| 4 | `CC(C)NC1CCc2c(ccc(=O)n2CCN2CCCC2=O)C1.O=C(O)C(F)(F)F` (stereo unspecified) | -6.658 & 2.984 |
| 5 | `OCC1CCCN1c1cc(NCc2cccnc2)ncn1` (stereo unspecified) | 18.49 |
| 6 | `COCC(C)(O)CNC(=O)c1cc(-c2cc(OC)ccc2OC)nn1C` (stereo unspecified) | 4.649 |
| 7 | `COCCc1noc(-c2cn(Cc3ccc(OC)cc3)nn2)n1` | 4.729 & 7.923 |
| 8 | `COC1COC2(CCN(Cc3ccccc3C)CC2)C1.O=C(O)C(F)(F)F` (stereo unspecified) | 19.06 |
| 9 | `CN(Cc1noc(C2CC2)n1)C1CCN(Cc2cccc(F)c2F)C1` (stereo unspecified) | -21.25 |
| 10 | `CNC(=O)C(C)CN(C)C(=O)Nc1ccc(F)c(-n2cccc2)c1` (stereo unspecified) | -2.416 |
| 11 | `COc1ccc(C2Nc3cc(Cl)ccc3C3=NCCN32)cc1CO` (stereo unspecified) | 28.56 |
| 12 | `CSc1ccc(CCN2CCN([C@H]3CCCC[C@@H]3O)CC2)cc1` | -2.194 |
| 13 | `Cc1cnc(CN2CCC(N(C)Cc3nnc(C)n3C)C2)cn1` (stereo unspecified) | 5.21 & 6.004 |
| 14 | `CN(Cc1ccc(Cl)s1)C(=O)c1cccc(OCC(N)=O)c1` | 11.4 |
| 15 | `CCCN(C)c1ccc(C(=O)NCc2ccnc(C)n2)cc1` | 13.3 |
| 16 | `N#Cc1cccnc1NCc1cccc(C(=O)NCC2CCCCO2)c1` (stereo unspecified) | 24.85 |
| 17 | `O=C(c1sccc1C1CC1)N1CCCN(Cc2cscn2)CC1` | 10.07 |
| 18 | `COc1ccsc1C(=O)Nc1cc(CN2CCOCC2)ccc1C` | -10.01 |
| 19 | `CCn1cc(C(=O)N2CCCC(c3noc(C)n3)C2)cn1` (stereo unspecified) | -24.49 |
| 20 | `CC1C(=O)NCCN1CCOc1ccc(C#N)cc1` (stereo unspecified) | 5.915 |
| 21 | `Cc1nonc1NC(=O)CCn1cc(Br)ccc1=O` | 128.9 & 5.98 |
| 22 | `CN1CCC(Cc2noc(CCc3nc4ccccc4nc3O)n2)CC1` | 30.41 |
| 23 | `CN(C)S(=O)(=O)NCc1cccnc1Oc1ccccc1` | 0.4549 |
| 24 | `Cc1nc(C)c(CNC(=O)N2CCN(c3ccc(Cl)cn3)CC2)s1` | 29.16 |
| 25 | `CC(C)c1nnc(CN2CCCC2Cn2cncn2)o1` (stereo unspecified) | -5.336 |
| 26 | `Cn1cc(CN2CCN(Cc3nccn3C)CC2)cn1` | -42.81 |
| 27 | `O=C(O)C(F)(F)F.[H][C@]12C[C@H](C(=O)NC)N(C)[C@@]1([H])CN(S(=O)(=O)c1cccc(C)c1)C2` | -1.559 & -19.91 |
| 28 | `Cc1nc(N2CCOCC2)nc(C)c1NS(=O)(=O)c1ccccc1` | 13.9 & 3.002 |
| 29 | `COc1cccc(N2CCC(CNc3cc(C)nc4ncnn34)C2)c1` (stereo unspecified) | 13.99 |
| 30 | `COCCC(=O)N1CCc2nc(N3CCOCC3)nc(NC(C)C)c2C1` | -21.86 |
| 31 | `CCCn1nc(-c2nc(COC)no2)ccc1=O` | -6.308 |
| 32 | `c1ccc2c3c([nH]c2c1)CN(Cc1cc2n(n1)CCNC2)CC3` | 32.46 |
| 33 | `CCS(=O)(=O)N1CCc2c(CN(C)Cc3ccco3)cncc2C1.Cl.Cl` | -3.87 |
| 34 | `CCCN1CCC=C(C2c3nc[nH]c3CCN2C(=O)c2ccco2)C1` (stereo unspecified) | -53.31 |
| 35 | `Cc1cccc(CN2C(=O)CCC23CCN(Cc2nccn2C)CC3)n1` | 12.56 |
| 36 | `CN1CCN([C@@H]2CN(C(=O)c3cc4cccc(F)c4[nH]3)C[C@H]2O)CC1` | 14.47 |
| 37 | `Cc1cccc(NC(=O)c2[nH]nc(C(C)C)c2Br)n1` | 20.84 & 32.93 |
| 38 | `CC(C)CCn1cc(C(C(=O)O)N2CCC(N3CCSCC3)CC2)cn1` (stereo unspecified) | -5.572 & -28.68 |
| 39 | `COc1ccc(CNCC2CCN(CC(C)O)CC2)c2ccccc12` (stereo unspecified) | 23.67 |
| 40 | `O=C(N1CCC(Oc2ccncc2)C1)C1(c2ccc(F)cc2)CC1` (stereo unspecified) | -37.62 |
| 41 | `Fc1ccc(CN2CCC3(CC2)CCN(c2ncccn2)CC3)cc1.O=C(O)C(F)(F)F.O=C(O)C(F)(F)F` | -6.011 |
| 42 | `CCCn1nc2c(cc1=O)CN(Cc1nc(CCOC)no1)CC2` | 0.4246 |
| 43 | `COc1c(CNC(C)c2sc(C)nc2C)c(C(C)C)nn1C` (stereo unspecified) | 9.983 |
| 44 | `CC(C)C(=O)N1CCOC2(COCCN(c3ncccn3)C2)C1` (stereo unspecified) | -13.58 |
| 45 | `Cc1cnc(CN2CCCC(c3cc(C(F)(F)F)[nH]n3)C2)cn1` (stereo unspecified) | 13.42 |
| 46 | `Cc1ccsc1C(=O)N1CCn2cnc(COCC3CC3)c2C1` | 14.83 & -6.68 |
| 47 | `CCN(CC)Cc1nc2c(o1)CN(C(=O)c1ccc3[nH]ccc3c1)C2.O=CO` | 17.97 & -0.158 |
| 48 | `Cn1c2c(c(=O)n1C)CN(S(=O)(=O)c1cccs1)CCC2` | -23.79 & -9.35 |
| 49 | `Cc1nn(C)c(N2CCOCC2)c1CNC(c1cccs1)C(C)C` (stereo unspecified) | 4.532 |
| 50 | `N#Cc1ccc(CNCC2CCN(CCO)CC2)cc1` | -9.935 & -13.41 |
| 51 | `COCCS(=O)(=O)Nc1ccc(-n2cncn2)c(F)c1` | 1.896 |
| 52 | `[H][C@@]12CN(Cc3ccsc3)C[C@]1([H])OCCN2Cc1cnn(C)c1` | -19.28 & -0.2893 |
| 53 | `Cc1nn(Cc2ccccc2)c(C)c1CNC1CCc2ncnn2C1` (stereo unspecified) | -25.33 |
| 54 | `CCOC(=O)c1nc(CC(=O)Nc2ccc3cc[nH]c3c2)no1` | 12.19 & -4.314 |
| 55 | `O=C(CN(Cc1cccs1)C1CCS(=O)(=O)C1)NC1CCCCC1` (stereo unspecified) | -42.11 |
| 56 | `Cc1noc(C)c1CNCc1nn(-c2ccccc2)c2c1CCC2` | 3.476 |
| 57 | `Cc1cnn(CC2CCCN2C(=O)c2ccc(OCC3CC3)nc2)c1` (stereo unspecified) | 2.152 |
| 58 | `Cc1cc(CNC(=O)CCN2CCN(c3ccccn3)CC2)c(C)o1` | -0.9983 & -4.456 |
| 59 | `Cc1cnn(CCCNCc2csc(COc3ccccc3)n2)c1` | 33.67 & 26.45 |
| 60 | `O=S1(=O)CCC(S(=O)(=O)c2cccc(S(=O)(=O)N3CCCC3)c2)C1` (stereo unspecified) | -6.459 |
| 61 | `COc1cc(CN2CCCC(Nc3cccc(F)c3)C2)cc(Cl)c1O` (stereo unspecified) | -20.39 & 16.44 |
| 62 | `CCOc1cc(C)nc(N2CCN(C(=O)CN(C)C3CC3)CC2)n1` | -28.66 & 1.391 |
| 63 | `O=C(O)C(F)(F)F.[H][C@@]12CCN(c3cccc(F)c3)C[C@@]1([H])O[C@@H](C(=O)NCc1ccco1)C2` | 19.04 |
| 64 | `N#CC1COCCN1S(=O)(=O)c1ccc(F)c(Br)c1` (stereo unspecified) | -38.78 & 1.053 |
| 65 | `N#Cc1cccc(C(=O)N2CCC3(CCC(=O)N(C4CC4)C3)CC2)c1` | 19.72 |
| 66 | `CCn1ncc2c1CCCC2NCc1ccc(C)s1` (stereo unspecified) | 3.27 |
| 67 | `Cc1cc(C(=O)N2CC(O)CO2)c2cccc(C)c2n1` (stereo unspecified) | -0.6833 & 4.51 |
| 68 | `c1ccc(-c2nnn3c2COC(CNCc2ccccn2)C3)cc1` (stereo unspecified) | 16.45 & 15.07 |
| 69 | `CN(C)S(=O)(=O)c1ccc(CNC(=O)C2CC(=O)N(C(C)(C)C)C2)cc1` (stereo unspecified) | 1.983 |
| 70 | `N#CC1(c2ccccc2)CCN(C(=O)CN2C(=O)CCNC2=O)CC1` | 27.58 |

For reference, 4 entries once more:

* CC(C)c1nnc(CN2CCCC2Cn2cncn2)o1 (stereo unspecified) | -5.336%
* CCn1cc(C(=O)N2CCCC(c3noc(C)n3)C2)cn1 (stereo unspecified) | -24.49%
* N#Cc1ccc(CNCC2CCN(CCO)CC2)cc1 | -9.935% & -13.41%
* O=S1(=O)CCC(S(=O)(=O)c2cccc(S(=O)(=O)N3CCCC3)c2)C1 (stereo unspecified) | -6.459%